{"source": "patent US9598359B2", "about": "“Sulfonates from natural oil metathesis” (priority 2010, dated 2017)", "conditions": "1200 cycles"}
{"compound": "CCCCCCCCCCCC(=O)OC(CCCCCCCC(=O)OC)C(CC)S(=O)(=O)[O-].[Na+]", "note": "(stereo not shown) [C12-37, C12 UME C12 FA (60:40) SLA]", "values": [{"measurement": "% coating removed, scrub", "value": 2.36, "unit": "%"}]}
